In paper PMC3714271:
These are yes or no findings as the source states them, for the method shown. Binding seen in cells or lysates may run through a third protein. A yes stands for co-enrichment or nearness to the bait. Other partners may have been found. Tags and fused reporters may be left off the sequences shown.

Amino acid sequences for entries named in this document (tags omitted).
UniProt P63167: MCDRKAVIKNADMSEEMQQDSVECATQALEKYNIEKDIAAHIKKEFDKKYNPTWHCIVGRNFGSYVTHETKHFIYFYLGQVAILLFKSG

Biological target: T1, FLAG-CDK5RAP2 (706–1241) (human) (UniProt Q96SN8)
T1 sequence: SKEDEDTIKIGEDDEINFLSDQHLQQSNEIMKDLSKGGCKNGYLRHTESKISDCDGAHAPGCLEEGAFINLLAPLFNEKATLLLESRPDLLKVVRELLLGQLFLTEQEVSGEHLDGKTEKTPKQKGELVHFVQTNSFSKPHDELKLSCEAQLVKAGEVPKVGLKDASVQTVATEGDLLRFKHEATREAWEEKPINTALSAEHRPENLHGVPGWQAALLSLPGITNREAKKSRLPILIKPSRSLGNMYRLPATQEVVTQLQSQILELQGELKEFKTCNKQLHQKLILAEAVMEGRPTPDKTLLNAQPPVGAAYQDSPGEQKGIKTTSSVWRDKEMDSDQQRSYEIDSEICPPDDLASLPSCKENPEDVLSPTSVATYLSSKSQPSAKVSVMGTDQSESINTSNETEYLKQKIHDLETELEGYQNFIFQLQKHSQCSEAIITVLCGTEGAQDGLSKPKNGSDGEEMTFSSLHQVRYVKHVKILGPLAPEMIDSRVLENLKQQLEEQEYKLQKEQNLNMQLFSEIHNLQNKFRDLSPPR
Test: affinity purification with mass spectrometry; anti-FLAG immunoprecipitation from HEK293T cells transfected with FLAG-CDK5RAP2 (706–1241) or empty vector; bands cut from stained SDS-PAGE gels, tandem mass spectrometry

- binding: binds
Substance: dynein light chain 8 (from UniProt P63167 1-89)
